{"source": "PubChem BioAssay AID328", "about": "(DTP/NCI, 2004)", "system": "BDF1 mice, P388 leukemia ip, median survival T/C", "test": "NCI In Vivo Anticancer Drug Screen. Data for tumor model P388 Leukemia (intraperitoneal) in B6D2F1 (BDF1) mice", "conditions": "T/C endpoint: median survival time, higher T/C = longer survival", "in_short": "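In tumour-bearing mice, survival after compound treatment is set against the vehicle group and given as a quotient.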", "key": {"[1]": {"conditions": "dose: 100.0 mg/kg/injection, schedule: Q04DX003 (ip), vehicle: saline with Tween-80"}, "[2]": {"conditions": "dose: 200.0 mg/kg/injection, schedule: Q01DX009 (ip), vehicle: Klucel (hydroxypropylcellulose) (HPC)"}, "[3]": {"conditions": "dose: 200.0 mg/kg/injection, schedule: Q04DX003 (ip), vehicle: Klucel (hydroxypropylcellulose) (HPC)"}, "[4]": {"conditions": "dose: 300.0 mg/kg/injection, schedule: Q04DX003 (ip), vehicle: Klucel (hydroxypropylcellulose) (HPC)"}, "[5]": {"conditions": "dose: 400.0 mg/kg/injection, schedule: Q01DX009 (ip), vehicle: saline with Tween-80"}, "[6]": {"conditions": "dose: 200.0 mg/kg/injection, schedule: Q01DX009 (ip), vehicle: saline with Tween-80"}}, "note": "The list is a part of this screen's results and no random one: it gathers tests that were run many times, whatever their T/C, doses with no T/C, and many T/C values between a quarter and a half above the control. Other doses and runs of a compound stand elsewhere. T/C: endpoint of the treated group in % of that of the vehicle group. Some doses have a count of surviving animals in place of a T/C: the source holds a T/C of zero for them, seemingly a mark for toxic or unscored doses. Some doses without a T/C left all or most animals alive at the check, yet need not have been tolerated: the source hardly ever lists a survival T/C far under the control, and the zero likely stands for such cases as well. Counts of survivors are from the toxicity check (mostly the fifth day) where no day follows; animals may have died later. Schedules are NCI's codes, read here as Q, the interval in days (D) or hours (H), X, the number of doses. Where survival is the endpoint, this PubChem deposit counts one and a half times the control or more as active, and values a quarter to a half above the control carry no call in these data; other NCI protocols may use other cut-offs. Some T/C values carry the count of animals alive at the toxicity check (mostly the fifth day); without a count, all were alive then."}
{"smiles": "CN(CCCCN(C)CCOS(C)(=O)=O)CCOS(C)(=O)=O", "values": [{"measurement": "survivor count", "setting": "[1]", "result": "0 of 6"}, {"measurement": "survivor count", "setting": "dose: 200.0 mg/kg/injection, schedule: Q04DX003 (ip), vehicle: saline with Tween-80", "result": "0 of 6"}, {"measurement": "survivor count", "setting": "dose: 400.0 mg/kg/injection, schedule: Q04DX003 (ip), vehicle: saline with Tween-80", "result": "0 of 6"}]}
{"smiles": "CC(C)CCC[C@@H](C)[C@H]1CC[C@H]2[C@@H]3CC=C4C[C@@H](OC(=O)Cc5ccc(N(CCCl)CCCl)cc5)CC[C@]4(C)[C@H]3CC[C@]12C", "values": [{"measurement": "survivor count", "setting": "dose: 3.12 mg/kg/injection, schedule: Q01DX010 (sc), vehicle: steroid suspending solution", "result": "6 of 6"}, {"measurement": "survivor count", "setting": "dose: 25.0 mg/kg/injection, schedule: Q01DX010 (sc), vehicle: steroid suspending solution", "result": "6 of 6"}, {"measurement": "T/C", "setting": "dose: 200.0 mg/kg/injection, schedule: Q01DX010 (oral), vehicle: steroid suspending solution", "result": "131 % of control"}]}
{"smiles": "NC(CSC(c1ccccc1)(c1ccccc1)c1ccc(F)cc1)C(=O)O", "note": "(stereo unspecified)", "values": [{"measurement": "T/C", "setting": "dose: 3.13 mg/kg/injection, schedule: Q01DX009 (ip), vehicle: Klucel (hydroxypropylcellulose) (HPC)", "result": "130 % of control"}, {"measurement": "T/C", "setting": "dose: 6.25 mg/kg/injection, schedule: Q01DX009 (ip), vehicle: Klucel (hydroxypropylcellulose) (HPC)", "result": "130 % of control"}, {"measurement": "T/C", "setting": "dose: 6.6 mg/kg/injection, schedule: Q01DX009 (ip), vehicle: Klucel (hydroxypropylcellulose) (HPC)", "result": "131 % of control"}, {"measurement": "T/C", "setting": "dose: 9.9 mg/kg/injection, schedule: Q01DX009 (ip), vehicle: Klucel (hydroxypropylcellulose) (HPC)", "result": "127 % of control"}, {"measurement": "T/C", "setting": "dose: 15.0 mg/kg/injection, schedule: Q01DX009 (ip), vehicle: Klucel (hydroxypropylcellulose) (HPC)", "result": "144 % of control"}, {"measurement": "T/C", "setting": "dose: 22.0 mg/kg/injection, schedule: Q04DX003 (ip), vehicle: Klucel (hydroxypropylcellulose) (HPC)", "result": "127 % of control"}, {"measurement": "T/C", "setting": "dose: 33.0 mg/kg/injection, schedule: Q04DX003 (ip), vehicle: Klucel (hydroxypropylcellulose) (HPC)", "result": "145 % of control [5 of 6 alive]"}, {"measurement": "T/C", "setting": "dose: 50.0 mg/kg/injection, schedule: Q04DX003 (ip), vehicle: Klucel (hydroxypropylcellulose) (HPC)", "result": "135 % of control"}, {"measurement": "survivor count", "setting": "dose: 100.0 mg/kg/injection, schedule: Q01DX009 (ip), vehicle: Klucel (hydroxypropylcellulose) (HPC)", "result": "0 of 6"}, {"measurement": "survivor count", "setting": "dose: 132.0 mg/kg/injection, schedule: Q04DX003 (ip), vehicle: Klucel (hydroxypropylcellulose) (HPC)", "result": "6 of 6"}, {"measurement": "survivor count", "setting": "[2]", "result": "0 of 6"}, {"measurement": "survivor count", "setting": "[3]", "result": "6 of 6"}, {"measurement": "survivor count", "setting": "[4]", "result": "6 of 6"}]}
{"smiles": "O=C(O)c1c(I)c(I)c(I)c(I)c1C(=O)c1ccccc1", "values": [{"measurement": "T/C", "setting": "[1]", "result": "135 % of control"}, {"measurement": "survivor count", "setting": "[5]", "result": "2 of 6"}]}
{"smiles": "CC(=O)Oc1cc(-c2ccccc2)c(OC(C)=O)cc1-c1ccccc1", "values": [{"measurement": "survivor count", "setting": "dose: 200.0 mg/kg/injection, schedule: Q01DX009 (ip), vehicle: water", "result": "2 of 6"}]}
{"smiles": "OC1(CSc2ccccc2)CCCCC1", "values": [{"measurement": "T/C", "setting": "dose: 50.0 mg/kg/injection, schedule: Q01DX009 (ip), vehicle: saline with Tween-80", "result": "131 % of control"}, {"measurement": "T/C", "setting": "[6]", "result": "131 % of control"}]}
{"smiles": "NC(C(=O)O)C1=CCC=CC1", "note": "(stereo unspecified)", "values": [{"measurement": "survivor count", "setting": "[6]", "result": "3 of 6"}]}
{"smiles": "CC(=O)Nc1ccc(NC(=O)NCCCl)cc1", "values": [{"measurement": "survivor count", "setting": "[2]", "result": "2 of 6"}, {"measurement": "T/C", "setting": "[3]", "result": "125 % of control"}, {"measurement": "survivor count", "setting": "[4]", "result": "4 of 6"}]}
{"smiles": "S=c1nc[nH]c2c1ncn2C1CCCC1", "values": [{"measurement": "survivor count", "setting": "[5]", "result": "5 of 6"}]}
{"smiles": "COc1ccc(Cc2nccc3c(OC)c(OC)ccc23)cc1OC", "values": [{"measurement": "T/C", "setting": "dose: 100.0 mg/kg/injection, schedule: Q01DX009 (ip), vehicle: saline", "result": "128 % of control"}, {"measurement": "survivor count", "setting": "dose: 400.0 mg/kg/injection, schedule: Q04DX003 (ip), vehicle: saline", "result": "1 of 6"}]}
